In patent US20190142722A1, “METHODS AND COMPOSITIONS FOR PROMOTING OR INDUCING HAIR GROWTH” (THE TRUSTEES OF COLUMBIA UNIVERSITY IN THE CITY OF NEW YORK, priority 2017, published 2019):
At least one compound was matched to its structure with a doubt left.

Tests used:
telogen skin = assay: Anagen induction by topical JAK inhibitor in mouse telogen skin; assay type: in vivo; details: topical to dorsal skin for 5 days at P60 (mid-telogen), C57BL/6 mice
Text: Mice were carefully shaved with clippers during telogen to reveal the pink skin typical of the telogen phase 1 week prior to the experiment. Mice that were inadvertently wounded were not used. Anagen was induced by topical application of 2% Ruxolitinib in DMSO to the right side of the dorsal skin daily for 5 consecutive days. The hair cycle was observed and documented with standardized photographs taken prior to the first treatment, and then twice weekly thereafter. Murine IL-6, LIF or OSM (100 ng/ml, 50 ng/ml, 125 ng/ml respectively) were dissolved in sterile PBS and 100 μl was injected into the center of the field of application daily for 10 consecutive days, beginning with the first application of Ruxolitinib.
OSM and other gp130 cytokines (IL-6 and Leukemia Inhibitory Factor, LIF) were tested for their ability to inhibit anagen resulting from topical JAK inhibitors, which resembles spontaneous anagen. C57BL/6 mice were treated on the right dorsal skin topically with Ruxolitinib 2% in DMSO at P60 (mid-telogen) for 5 days, recapitulating previous experiments in Harel, S., et al., Pharmacologic inhibition of JAK-STAT signaling promotes hair growth. Sci Adv, 2015. 1(9): p. e1500973. […] From P60, mice were also injected with control PBS or a gp130 cytokine (IL-6, LIF or OSM) into the middle of the field of topical application for 10 days. […] (FIG. 1A).

[1] = system: Hair follicle stem cells (HFSCs); assay: Western blot of cultured HFSCs stimulated with OSM, with or without JAK inhibitor pre-treatment; assay type: cell-based, mouse; details: pre-treatment 10 μM for 20 min before OSM
Experimental: HFSCs (ITGA6+ Sca-1−) cells were collected from flow cytometry and plated onto 6-well plates, and maintained with Cnt-07S keratinocyte media. In vitro stimulation experiments were carried out when keratinocytes were 80-90% confluent. Confluent HFSCs were pre-treated with JAK inhibitors (tofacitinib, ruxolitinib or PF-06651600, all at 10 μM) for 20 min, and murine OSM was added for a final concentration of 10 ng/ml or 20 ng/ml for 15 min. For clonogenic assays, HFSCs were plated at a density of 10,000 cells per well and maintained for 2 weeks. For analysis of clonogenicity, plates were washed with PBS, and keratinocytes were fixed in situ with 4% paraformaldehyde (PFA) for 1 hour, followed by staining with 1% (wt/vol) Rhodamine B (Sigma-Aldrich) for 1 h. Clones were quantified using a backlight.
Cells were lyzed in RIPA buffer in the presence of protease and phosphatase inhibitors on ice, and protein lysates were resuspended in Laemmli sample buffer. Whole-cell lysates were fractionated on TGX Stain-free protein gels and transferred to a PVDF membrane, blocked with 5% non-fat milk in TBST, and incubated with antibodies listed in the Key Resources Table (all 1:1000, diluted in TBST/3% BSA) overnight. […]

alopecia areata = details: patients, literature (Mackay-Wiggan 2016; Kennedy Crispin 2016); cited from earlier work

**Q.** Which results are given for `N#CC[C@H](C1CCCC1)n1cc(-c2ncnc3[nH]ccc23)cn1` [Ruxolitinib]?
**A.** anagen induction in telogen skin (telogen skin): stimulated a robust anagen in the telogen skin; effect on JAK phosphorylation in OSM-stimulated HFSCs (Western blot) [1]: inhibited phosphorylation of a variety of JAKs; effect on pSTAT3 / pSTAT5 activation in OSM-stimulated HFSCs (Western blot) [1]: inhibited both pSTAT3 and pSTAT5 activation; efficacy in alopecia areata (alopecia areata): efficacious in the treatment of alopecia areata
